In patent US10583206B2, “Radioactive probe for detecting hydrogen sulfide” (KYUNGPOOK NATIONAL UNIVERSITY INDUSTRY-ACADEMIC COOPERATION …, priority 2015, dated 2020):
Some entries share one result that the patent states for a list of compounds. For at least one compound, name, drawing or mass did not settle the structure.

Assay: Test of hydrogen sulfide detection over time (^64CuS formation, radio-TLC)
Assay type: physicochemical
Details: 100 μM NaHS
Procedure: To examine reactivity of the ^64Cu-labeled complex compound according to the present disclosure over time, the following experiment was performed.
A detailed experimental method is as follows.
About 45 μCi-50 μCi of ^64Cu-labeled complex compound (250 μL of triple distilled water) was mixed with 100 μM of NaHS solution ([…] of triple distilled water), and stirred at 37° C. for 15 minutes. Formation of copper sulfide (^64CuS) was quantified by using a radio-TLC scanner.

Compound	time to begin to detect hydrogen sulfide [s]
C1C[N]2CC[N]3CC[N]4CC[N]1[64Cu]243 [Example 1, ^64Cu-labeled cyclen]	≤ 10
C1COCCNCCOCCN1.[64Cu+2] [Example 3]	≤ 10
C1C[N]2CCC[N]3CCC[N](C1)[64Cu]23 [Example 21]	≤ 10
